# Values quoted from earlier work in patent US8992981B2, “Method for producing microparticles and the microparticles” (M Technique Co., Ltd., priority 2007, dated 2015).
# Conditions: heating to 70° C. or more
structure (smiles),measurement,value
"Nc1nc2c(ncn2COCCO)c(=O)[nH]1 [aciclovir, 9-[(2-hydroxyethoxy)methyl]guanine]",solubility in water on heating,about 8 w/v %
